At least one structure is not confirmed: it was looked up by name or label, or the drawing left a doubt.
Test system: glycation of histone H1 by ADP-ribose
Assay: Screening of inhibitors of nonoxidative advanced glycation: AGE-fluorescence on 96 well-microtiter plate
Format: biochemical, calf
Conditions: compound 200 μM, (± SEM, n = 2)
Procedure: All operations were carried out at 4° C. Chromatin was isolated from fresh calf thymus by extraction with 0.14 M NaCl, 0.05 M Na2S2O5, as described earlier in Wondrak supra. After repeated extraction with 5% HCl)4 and centrifugation (1500 g), histone H1 was precipitated from the supernatant by addition of TCA (20% final concentration v/v). The histone H1 precipitate was colleted by centrifugation (12,000 g) and deionized water. After extensive dialysis (MW cut-off: 12,000-14,000) against water for 48 h, the sample was lyophilized and the protein was stored at 4° C. SDS-PAGE (12%) was used to analyze the purity of the preparation.
Earlier studies have reported that D-penicillamine inhibits collagen crosslinking and AGE fluorescence caused by sugars (McPherson, J. D., Shilton, B. H., and Walton, D. J. 1988. Role of Fructose in Glycation and Cross-Linking of Proteins. Biochemistry 27, 1901-1907) and reaction of D-penicillamine with aldehyde groups of proteins (Deshmukh, K., and Nimm, M. E. 1969. A Defect in the Intramolecular and Intermolecular Cross-linking of Collagen caused by Penicillamine. J. Biol. Chem. 244, 1787-1795). A number of different penicillamines and penicillamine derivatives were tested to determine the inhibition of AGE-fluorescence on histone H1 at physiological pH. […]

## C[C@@H]1O[C@@H](OC[C@H]2O[C@@H](Oc3c(-c4ccc(O)c(O)c4)oc4cc(O)cc(O)c4c3=O)[C@H](O)[C@@H](O)[C@@H]2O)[C@H](O)[C@H](O)[C@H]1O [Rutin]
Day 0
  AGE-fluorescence (day 0): 1.0 (0.0) relative units
Day 5, complete reaction under air
  AGE-fluorescence (day 5): 3.0 (0.1) relative units
